# Experimental data as given in PubChem BioAssay AID1671190 (National Center for Advancing Translational Sciences (NCATS), 2021).
# Chains of the proteins cited; added tags and fusions are not shown. Lines headed by an entry give the natural chain unless they say otherwise; changes in a name come on top.
# UniProt P18054: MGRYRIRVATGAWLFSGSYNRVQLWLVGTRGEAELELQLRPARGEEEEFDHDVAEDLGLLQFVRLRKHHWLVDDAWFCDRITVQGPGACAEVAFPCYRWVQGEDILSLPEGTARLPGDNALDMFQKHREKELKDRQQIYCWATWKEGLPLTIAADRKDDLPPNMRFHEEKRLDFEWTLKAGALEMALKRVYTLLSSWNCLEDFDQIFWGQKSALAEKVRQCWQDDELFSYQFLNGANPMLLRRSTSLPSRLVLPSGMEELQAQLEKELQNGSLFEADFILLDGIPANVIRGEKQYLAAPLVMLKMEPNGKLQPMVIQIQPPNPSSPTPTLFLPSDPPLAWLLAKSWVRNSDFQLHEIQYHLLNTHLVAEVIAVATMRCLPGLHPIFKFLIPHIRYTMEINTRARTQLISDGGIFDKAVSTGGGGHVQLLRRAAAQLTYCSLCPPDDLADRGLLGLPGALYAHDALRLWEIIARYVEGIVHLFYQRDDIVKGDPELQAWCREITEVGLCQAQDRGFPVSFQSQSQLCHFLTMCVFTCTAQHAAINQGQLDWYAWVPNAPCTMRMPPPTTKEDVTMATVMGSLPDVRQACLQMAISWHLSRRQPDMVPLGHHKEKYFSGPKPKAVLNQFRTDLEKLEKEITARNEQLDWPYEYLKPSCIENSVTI
# Screen size: about 580,000 compounds; about 6,100 (1.1%) were called active. This list was built around the results that the source calls inconclusive (neither active nor inactive); the mix of calls is not that of the screen. Calls come from the whole dose curve; as a rule, active = well fitted inhibition curve with a large enough effect; inconclusive = small, poorly fitted or top-dose-only effect, or another doubt; inactive = no such curve, though single readings can be large or run the other way. Where the call is inconclusive, the potency comes from a doubtful curve fit.
# Target: Polyunsaturated fatty acid lipoxygenase ALOX12 (Homo sapiens) (UniProt P18054)
# Assay: Primary qHTS assay for inhibitors of human arachidonate 12S-lipoxygenase (ALOX12): Round 2
# Details: purified 12hLO, xylenol orange hydroperoxide absorbance; activity change, negative = inhibition: at 108 µM (top of the series) unless noted
# Summary of the method: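 Purified human 12hLO (150 nM final) in 25 mM Hepes, 0.01% Triton X-100, pH 7.0 was preincubated 15 min at room temperature with compound. Then 40 uM arachidonic acid was added, 30 min. Hydroperoxide was read by Fe-XO absorbance ratio 573/405 nm.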
# % is set by controls: 0 for no effect and ±100 for the full control effect; potency is the fitted concentration of half-maximal effect.
Compound,Potency,"activity change, negative = inhibition"
CCOc1ccc(N(C)S(=O)(=O)c2cc(-c3cc(C)no3)ccc2CC)cc1,inactive,–
COC1=CC(=O)c2nc(Cl)ccc2C1=O,"inconclusive: 39.8 µM [inhibitor, partial curve, poor fit]",–
COc1ccc2c(c1)C(=O)CC(c1ccc3c(c1)OCCO3)O2 (centres undefined),–,inactive: 11.8%
CC(NC(=O)/C(=C\c1cccc(Br)c1)NC(=O)c1ccco1)C(=O)O (centres undefined),"inconclusive: 1.58 µM [inhibitor, full curve, poor fit]",–
CC(=O)Nc1ccc(S(=O)(=O)N2CCN=C2SCc2ccc(C)cc2)cc1,–,inactive: 4.61%
Cc1cc(C)cc(NC(=S)NCCN(C2CCCCC2)C2CCCC2)c1,"inconclusive: 100 µM [inhibitor, partial curve, poor fit]",–
Cc1ccc2nc(Cl)c3cc(C(=O)NC(C)CCc4ccccc4)sc3c2c1 (centres undefined),–,inactive: -0.439%
CCNC(=O)NC(=O)C(C)OC(=O)c1oc2ccccc2c1CSC1CCCCC1 (centres undefined),–,inactive: 1.14%
CC(C)CN1CC2(C1)C(=O)N(CCCN1CCCC1=O)C(=O)[C@@H]1C[C@@H](O)CN12,"inconclusive: 31.6 µM [inhibitor, full curve, poor fit]",–
Cc1nc(Cl)cc(N/N=C/c2ccc(O)cc2O)n1,–,inactive: 0%
O=[N+]([O-])c1ccc(-c2cc3ccccc3[nH]2)cc1,"inconclusive: 0.708 µM [inhibitor, full curve, poor fit]",–
Cc1nc2cc(NC(=O)c3ccc(Cl)c(Cl)c3)ccc2o1,–,inactive: -12.1%
CC(C)/C=C/CN1CCN(CCCc2ccccc2)C(CCO)C1 (centres undefined),"inconclusive: 2 µM [inhibitor, partial curve, poor fit]",–
COc1ccc(C(NCC(=O)NC(C)c2ccc(Cl)cc2)c2ccccc2)cc1 (centres undefined),"inconclusive: 0.355 µM [inhibitor, full curve, poor fit]",–
N#CC1(c2ccccc2)CCC(=O)N1Cc1ccccc1 (centres undefined),–,inactive: 18.7%
O=[N+]([O-])c1ccc(N2CCN(Cc3cccc([N+](=O)[O-])c3)CC2)cc1,–,inactive: -5.48%
CCc1ccc2cccc3c2c1N=CN3C,"inconclusive: 44.7 µM [inhibitor, partial curve, poor fit]",–
COC(=O)c1scc(-c2ccc(C)cc2)c1S(=O)(=O)N1CCN(c2ccc(OC)cc2)CC1,"inconclusive: 141 µM [inhibitor, partial curve, poor fit]",–
CN(Cc1ccccc1)c1oc(COc2ccc(F)cc2)nc1C#N,"inconclusive: 31.6 µM [inhibitor, single point]",–
COc1ccc(-c2ccc3c(n2)CN(CCOc2ccccc2)C(=O)CO3)cc1F,"inconclusive: 3.55 µM [inhibitor, full curve]",–
COc1ccc(-c2csc(Nc3cccc(C)n3)n2)cc1C,"inconclusive: 35.5 µM [inhibitor, single point]",–
CCc1ccccc1S(=O)(=O)N1CCN(C2CCN(CCC(C)C)C2=O)CC1 (centres undefined),"inconclusive: 7.94 µM [inhibitor, partial curve]",–

Compound,Potency,"activity change, negative = inhibition"
COc1cc(C(=O)Oc2ccc(Br)cc2C(=S)N2CCOCC2)cc(OC)c1OC,"inconclusive: 50.1 µM [inhibitor, partial curve, poor fit]",–
COc1cccc(CN2CCC3(CC2)NCCc2c3[nH]c3ccccc23)c1,"inconclusive: 22.4 µM [inhibitor, full curve]",–
CC(Oc1ccccc1)C(=O)OCc1nc2ccsc2c(=O)[nH]1 (centres undefined),"inconclusive: 35.5 µM [inhibitor, partial curve, poor fit]",–
CC1CCC(C(C)C)C(OCC[N+](C)(C)C)C1 (centres undefined),"inconclusive: 50.1 µM [inhibitor, partial curve, poor fit]",–
COc1cc2c(cc1OC)C(c1cc(OC)c(OC)cc1[N+](=O)[O-])N(C(C)=O)CC2 (centres undefined),–,inactive: 6.83%
CCOC(=O)Cc1nnc(NC(=O)CSc2ccc(Cl)cc2)s1,"inconclusive: 44.7 µM [inhibitor, partial curve, poor fit]",–
Cc1ccccc1Cn1c(=O)n(CCCC(=O)NCc2ccc3c(c2)OCO3)c(=O)c2ccccc21,–,inactive: 1.15%
COC(=O)c1cc2c(c3c4ccccc4n(S(=O)(=O)c4ccccc4)c13)C(=O)N(C)C2,"inconclusive: 10 µM [inhibitor, full curve, poor fit]",–
Cc1ccc(N(CC(=O)NCc2ccncc2)S(=O)(=O)c2ccc(Cl)cc2)cc1C,"inconclusive: 79.4 µM [inhibitor, partial curve, poor fit]",–
CCOc1ccccc1N1CCN(S(=O)(=O)c2cnn(CC)c2)CC1,–,inactive: 15.5%
CCN1[C@@H]2c3ccc(-c4ccc(OC)cc4)c(=O)n3C[C@@H]2[C@@H](CO)[C@@H]1C(=O)NCCN1CCCCC1,"inconclusive: 79.4 µM [inhibitor, partial curve, poor fit]",–
COc1cc(C(=O)NC(=S)Nc2cccc3nc(C)ccc23)cc(OC)c1OC,–,inactive: 1.93%
CC(=O)C[C@@H](O)CC(=O)[C@H]1OC(=O)[C@@H](C)C/C=C\Cc2ccccc21,–,inactive: -61.1%
Cc1ccc(S(=O)(=O)Nc2c(C(=O)O)[nH]c3ccccc23)cc1C,"inconclusive: 56.2 µM [inhibitor, partial curve, poor fit]",–
Cc1ccc(CNC(=O)C2CCN(Cc3ccc(C(F)(F)F)cc3)CC2)cc1,"inconclusive: 1 µM [inhibitor, full curve, poor fit]",–
CN1CCN(C(=O)c2ccc3c(=O)n(Cc4ccco4)c(=S)[nH]c3c2)CC1,–,inactive: -7.75%
O=C(O)c1csc(-c2ccccc2)n1,–,inactive: -0.565%
CC1CCCCN1CC(=O)Nc1sc2c(c1C#N)CCC2 (centres undefined),–,inactive: -23.5%
CCOc1ccc(C2C=C(c3ccc(OC)cc3)Nc3ncnn32)cc1 (centres undefined),"inconclusive: 17.8 µM [inhibitor, full curve, poor fit]",–
COc1cccc(CN2CCNc3cc(-c4ccccc4)ncc3C2)c1,–,inactive: 15.6% [at 176 µM]
O=C(c1ccc(F)c(F)c1)N1CCN(c2cc(-c3ccc(Cl)cc3)[nH]n2)CC1,–,inactive: 40.3%
COc1ccc(-c2nc(CS(=O)CC(=O)NCc3ccccc3)c(C)o2)cc1 (centres undefined),"inconclusive: 3.98 µM [inhibitor, full curve, poor fit]",–

# At a glance, part of the list above:
Compound,Potency,"activity change, negative = inhibition"
CC(Oc1ccccc1)C(=O)OCc1nc2ccsc2c(=O)[nH]1 (centres undefined),"inconclusive: 35.5 µM [inhibitor, partial curve, poor fit]",–
CC1CCC(C(C)C)C(OCC[N+](C)(C)C)C1 (centres undefined),"inconclusive: 50.1 µM [inhibitor, partial curve, poor fit]",–
